For assay [1], the target named is T1, Bombyx ecdysone receptor EcR-B1, CytoTrap two-hybrid fusion (Bombyx mori (silkworm)) (UniProt P49881).
T1 sequence: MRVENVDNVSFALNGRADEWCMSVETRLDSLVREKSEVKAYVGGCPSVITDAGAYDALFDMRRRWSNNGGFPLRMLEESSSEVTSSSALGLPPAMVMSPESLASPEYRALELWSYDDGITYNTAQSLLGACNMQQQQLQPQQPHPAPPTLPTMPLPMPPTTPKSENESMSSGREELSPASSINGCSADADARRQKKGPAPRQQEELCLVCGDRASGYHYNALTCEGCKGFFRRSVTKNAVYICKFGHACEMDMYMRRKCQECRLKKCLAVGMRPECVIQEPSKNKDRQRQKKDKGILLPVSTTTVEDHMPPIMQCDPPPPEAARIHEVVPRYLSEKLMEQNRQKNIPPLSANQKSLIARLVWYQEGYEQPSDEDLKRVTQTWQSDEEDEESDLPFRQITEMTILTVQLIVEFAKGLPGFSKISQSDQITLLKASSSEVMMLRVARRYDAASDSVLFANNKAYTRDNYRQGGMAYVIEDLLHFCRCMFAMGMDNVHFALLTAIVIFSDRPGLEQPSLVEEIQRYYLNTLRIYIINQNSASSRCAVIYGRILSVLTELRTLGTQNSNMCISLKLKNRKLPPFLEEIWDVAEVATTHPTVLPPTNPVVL
Nature of the assay: two-hybrid; CytoTrap system (Stratagene) in yeast cdc25H; bait fused to human Sos, prey fused to a myristoylation signal under the GAL1 promoter; growth at restrictive temperature on galactose medium; more colonies mean a stronger association.

The target of assay [2] is T2, Bombyx ultraspiracle USP1, CytoTrap two-hybrid fusion (Bombyx mori (silkworm)) (UniProt P49700).
T2 sequence: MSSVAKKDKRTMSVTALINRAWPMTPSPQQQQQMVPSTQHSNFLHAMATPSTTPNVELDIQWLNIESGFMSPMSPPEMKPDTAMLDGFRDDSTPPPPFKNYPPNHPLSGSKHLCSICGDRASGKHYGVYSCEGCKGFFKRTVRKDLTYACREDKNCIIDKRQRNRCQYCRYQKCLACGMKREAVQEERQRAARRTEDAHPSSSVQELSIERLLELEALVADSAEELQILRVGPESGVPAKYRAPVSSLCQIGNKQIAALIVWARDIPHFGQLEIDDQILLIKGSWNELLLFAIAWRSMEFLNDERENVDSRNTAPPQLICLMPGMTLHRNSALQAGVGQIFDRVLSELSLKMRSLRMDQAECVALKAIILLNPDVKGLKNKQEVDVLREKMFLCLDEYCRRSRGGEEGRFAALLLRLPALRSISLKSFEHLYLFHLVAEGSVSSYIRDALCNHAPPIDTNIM
The description is as above.

Assay [3] has as its target T3, HA-EcR (Bombyx EcR-B1) (Bombyx mori (silkworm)) (UniProt P49881).
T3 sequence: T1 sequence
Nature of the assay: native gel or EMSA; HA-EcR, FLAG-USP, V5-Met1 and cMyc-Met2 co-transfected into HEK 293 cells; nuclear extract (15 ug) bound to biotin-labeled EcRE, 5% nondenaturing PAGE; supershift by V5 or cMyc antibody. Background: A gel shift assay detects complexes by their altered migration in electrophoresis.

The target in assay [4] is T4, FLAG-USP (Bombyx ultraspiracle) (Bombyx mori (silkworm)) (UniProt P49700).
T4 sequence: T2 sequence
The assay is described as above.

The target of assay [5] is T3, HA-EcR (Bombyx EcR-B1) (Bombyx mori (silkworm)). Nature of the assay: co-IP; HA-EcR, FLAG-USP and V5-Met1 co-transfected into human HEK 293 cells, with or without 1 uM 20E for 6 hr; NP-40 lysis buffer; FLAG, V5 or cMyc antibody or IgG for 4 hr, protein G overnight at 4°C; Western blot. (In general: Immunoblotting shows a protein as a band on a membrane.)
Assay [6] addresses T4, FLAG-USP (Bombyx ultraspiracle) (Bombyx mori (silkworm)). Described as above.
Assay [7] addresses Bombyx MET2 (Methoprene-tolerant 2), CytoTrap two-hybrid fusion (Bombyx mori (silkworm)) (UniProt B0LL82). Nature of the assay: two-hybrid; CytoTrap system (Stratagene) in yeast cdc25H; bait fused to human Sos, prey fused to a myristoylation signal under the GAL1 promoter; growth at restrictive temperature on galactose medium; more colonies mean a stronger association.

Consider four substances from PMC3531340.

Results are given in words; binding and its absence hold for the method and conditions named. A result given as binding can be weak or reduced; the word gives no strength. For some assays here: Tags and fused reporters may be left off the sequences shown. For some assays here: Binding seen in cells or lysates may run through a third protein.

For “Bombyx MET2 (Methoprene-tolerant 2), CytoTrap two-hybrid fusion (from UniProt B0LL82)”, the binding result in assay [1] and in assay [2] was “binds” each time.

For the substance cMyc-MET2 (Bombyx MET2), the binding entry in assay [3] and in assay [4] was “binds” in each case.

On to V5-MET1 (Bombyx MET1), for which the binding result in assay [3], in assay [4], in assay [5] and in assay [6] was “binds” each time.

With “Bombyx MET1 (Methoprene-tolerant 1), CytoTrap two-hybrid fusion (from UniProt B0LL81)”, the binding result in assay [1] is “binds”; in assay [7] it was “binds weakly”; in assay [2], “binds”.
